Experimental data: article PMC12317139
Results are given in words; binding and its absence hold for the method and conditions named. Binding seen in cells or lysates may run through a third protein. Some results given as binding are weak or reduced against the parent protein; the word gives no strength. Sequences can lack the tags named with a protein. Blank lines part the entries; values can stand above or below the binder they belong to.

Tests used:
[1] = biological target: T1, TRPM3 with a C-terminal RFP tag (TRPM3-RFP) (mouse) (UniProt J9SQF3); assay: co-IP; HEK293T cells co-transfected; lysate incubated with anti-RFP or anti-Flag antibody (2 μg, 4 °C, 4 h), then Protein A/G PLUS-Agarose overnight at 4 °C; five PBS washes; western blot with anti-Flag / anti-RFP; IgG control
T1 sequence: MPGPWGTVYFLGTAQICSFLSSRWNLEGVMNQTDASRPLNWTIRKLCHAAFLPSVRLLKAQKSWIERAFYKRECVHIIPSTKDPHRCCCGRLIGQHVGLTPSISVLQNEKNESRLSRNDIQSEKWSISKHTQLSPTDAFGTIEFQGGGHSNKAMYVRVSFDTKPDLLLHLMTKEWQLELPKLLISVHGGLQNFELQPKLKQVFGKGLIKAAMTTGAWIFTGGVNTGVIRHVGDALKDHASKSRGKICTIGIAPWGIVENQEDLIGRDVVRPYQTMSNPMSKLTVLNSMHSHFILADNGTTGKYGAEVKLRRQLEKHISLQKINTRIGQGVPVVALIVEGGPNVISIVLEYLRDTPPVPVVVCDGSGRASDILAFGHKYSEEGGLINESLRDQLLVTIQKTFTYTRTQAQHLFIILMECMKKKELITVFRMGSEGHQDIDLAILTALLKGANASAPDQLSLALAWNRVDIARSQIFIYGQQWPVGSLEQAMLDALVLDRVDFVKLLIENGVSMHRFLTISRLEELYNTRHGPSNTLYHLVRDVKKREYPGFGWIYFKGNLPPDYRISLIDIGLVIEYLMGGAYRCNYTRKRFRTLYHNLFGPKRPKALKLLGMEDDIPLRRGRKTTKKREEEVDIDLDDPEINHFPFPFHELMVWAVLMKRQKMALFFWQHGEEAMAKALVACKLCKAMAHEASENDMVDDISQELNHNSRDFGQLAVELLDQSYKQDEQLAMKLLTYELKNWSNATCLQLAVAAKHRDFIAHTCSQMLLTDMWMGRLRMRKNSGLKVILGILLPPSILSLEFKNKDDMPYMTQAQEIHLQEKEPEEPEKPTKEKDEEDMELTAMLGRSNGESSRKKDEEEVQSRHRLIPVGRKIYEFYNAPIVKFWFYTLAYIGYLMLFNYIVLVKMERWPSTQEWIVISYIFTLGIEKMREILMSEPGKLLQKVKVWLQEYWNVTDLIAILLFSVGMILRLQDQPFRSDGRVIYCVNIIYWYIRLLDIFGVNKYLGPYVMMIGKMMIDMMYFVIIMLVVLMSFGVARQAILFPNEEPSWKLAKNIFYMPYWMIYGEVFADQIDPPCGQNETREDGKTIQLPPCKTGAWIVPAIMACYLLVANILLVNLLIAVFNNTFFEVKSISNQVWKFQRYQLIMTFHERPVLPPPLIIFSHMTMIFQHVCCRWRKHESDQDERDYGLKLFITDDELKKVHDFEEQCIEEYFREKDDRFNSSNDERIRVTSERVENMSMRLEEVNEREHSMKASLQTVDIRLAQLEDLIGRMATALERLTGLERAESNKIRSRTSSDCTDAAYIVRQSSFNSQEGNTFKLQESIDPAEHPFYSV

[2] = biological target: Copine-6 carrying a C-terminal Flag-tag (Copine-6-Flag) (not stated (rat or mouse cDNA cloned)) (UniProt Q9Z140); assay: as above

binding [1]: binds
B1: Copine-6 vWA domain (Copine-6 269-557), Flag-tagged (domain or fragment, UniProt Q9Z140 269-557)
chain: YRDKKKNYKSSGTVVLAQCTVEKVHTFLDYIMGGCQISFTVAIDFTASNGDPRSSQSLHCLSPRQPNHYLQALRTVGGICQDYDSDKRFPAFGFGARIPPNFEVSHDFAINFDPENPECEEISGVIASYRRCLPQIQLYGPTNVAPIINRVAEPAQREQSTGQATKYSVLLVLTDGVVSDMAETRTAIVRASRLPMSIIIVGVGNADFSDMRLLDGDDGPLRCPKGVPAARDIVQFVPFRDFKDAAPSALAKCVLAEVPRQVVEYYASQGISPGAPRPSTPAMTPSPSP

binding [1]: binds
B2: Copine-6 C2A domain (Copine-6 1-151), Flag-tagged (domain or fragment, UniProt Q9Z140 1-151)
chain: MSDPEMGWVPEPPAMTLGASRVELRVSCHGLLDRDTLTKPHPCVLLKLYSDEQWVEVERTEVLRSCSSPVFSRVLAIEYFFEEKQPLQFHVFDAEDGATSPSSDTFLGSTECTLGQIVSQTKVTKPLLLKNGKTAGKSTITIVAEEVSGTN

binding [2]: binds
B3: TRPM3 with a C-terminal RFP tag (TRPM3-RFP) (protein, UniProt J9SQF3-13 1-1337)
chain: T1 sequence
